The other results are listed elsewhere or left out.

The chains behind the UniProt entries cited, without tags or fusion partners.
UniProt Q0JBA9, entry or part of it: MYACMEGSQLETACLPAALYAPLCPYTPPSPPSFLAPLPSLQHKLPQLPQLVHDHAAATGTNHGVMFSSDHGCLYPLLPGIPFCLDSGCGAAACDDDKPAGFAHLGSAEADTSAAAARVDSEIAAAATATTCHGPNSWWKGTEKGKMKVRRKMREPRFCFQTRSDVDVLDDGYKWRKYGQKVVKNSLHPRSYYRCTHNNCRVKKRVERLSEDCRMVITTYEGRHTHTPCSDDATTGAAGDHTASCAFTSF

From publication PMC7819943, “Rice protein-binding microarrays: a tool to detect cis-acting elements near promoter regions in rice” come the findings set out here.

The target of this assay is OsWRKY34 (Oryza sativa, UniProt Q0JBA9 1-250). Kind of assay: protein-binding microarray (RPBM); PBS, 2% BSA, 51.3 ng/ul salmon testes DNA, 50 uM zinc acetate, 200 nM TF, 25 C, 1 h; high values mean tight binding. The settings on record: protein: recombinant; tags: N-terminal polyhistidine and DsRed monomer fusion (pET32a); label: CyDye5-dUTP incorporated in the synthesized complementary strand; 3' TTTTT single-stranded linker to array surface; dsDNA, one strand shown. The method in brief: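 In PBS with 2% BSA, salmon testes DNA and 50 µM zinc acetate, 200 nM protein was incubated on a custom Agilent array at 25 °C for 1 h and then washed off. The array had been made double-stranded by primer extension with Cy5-dUTP and blocked with 2% BSA. The proteins were transcription factors fused N-terminally to polyhistidine and DsRed, expressed in E. coli BL21-CodonPlus and purified on Ni–NTA. The binding signal is per-feature fluorescence intensity (arbitrary units) from an Axon 4000B scanner.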
For the sequence “CTCTATCACTCGCTCTTCCGACCACGCCTCATCCGCCATGCGGAGTCACCTAGTGCAG”, the binding signal was 8860 fluorescence intensity (a.u.).
In the case of “AGCTCTCACCATTCATTCCACTATACAAGCCTAAGGCAGCCGGAGTCACCTAGTGCAG” it was 8430 fluorescence intensity (a.u.); in that of “GTTTGACTGCTAGTGCATTAATCAGATTTAAACTTACAATCGGAGTCACCTAGTGCAG”, 9290 fluorescence intensity (a.u.); in that of “GGTTAGGAAGAAGGATGGTACTTGGAGATTGGTCATTGACCGGAGTCACCTAGTGCAG”, 9440 fluorescence intensity (a.u.).
For “ACGTACATTTAAGTTTGGCATTGAAGTAGCTCATGTTATGCGGAGTCACCTAGTGCAG”, the binding signal was 8800 fluorescence intensity (a.u.).
The figure for “AAAGTCGTGTAACTTCATTGACGTTGGCATATTGTACTATCGGAGTCACCTAGTGCAG” is 8670 fluorescence intensity (a.u.).
The figure for “CCGGTCCACTCACCCCTAACCCTAGCCGCTGCTGCCCGTCCGGAGTCACCTAGTGCAG” is 9170 fluorescence intensity (a.u.); for “GAACAGCCCACATGGCACAACCACGAATTTTGGCCCACATCGGAGTCACCTAGTGCAG” it is 8660 fluorescence intensity (a.u.); for “CTCTTGATACCTAGCTAGGTTCCATTTCTCACTATCCTCTCGGAGTCACCTAGTGCAG” it is 11000 fluorescence intensity (a.u.).
The figure for “GCATAGAGTACTTGAACTGTTGAAACCAGATCACTTTACACGGAGTCACCTAGTGCAG” is 8300 fluorescence intensity (a.u.); for “CGTCATCGTCGCCGCGCGTTCACACCAAGCTATAGCCACCCGGAGTCACCTAGTGCAG” it is 9680 fluorescence intensity (a.u.); for “GTTTGGTTCACGGTCATGTATGGATAGGATATGGCCATTCCGGAGTCACCTAGTGCAG” it is 8070 fluorescence intensity (a.u.).
“TTCATATTATAAGACTTTCTAGCATTGTTTATATTCATTTCGGAGTCACCTAGTGCAG”: the binding signal is 8310 fluorescence intensity (a.u.).
The figure for “CTATCGTCATCCTCGCGATCGCCGCATTCATCCATCCACTCGGAGTCACCTAGTGCAG” is 12800 fluorescence intensity (a.u.).
Take “CTGCAACAATTTGTCCTTTTCATTTGTCTTGCAGTTCTTGCGGAGTCACCTAGTGCAG”: the binding signal is 10100 fluorescence intensity (a.u.).
On to “ACTGGACTATTTTTTTTTCGCGGCAAATCCATATCACTGCCGGAGTCACCTAGTGCAG”, for which the binding signal was 8880 fluorescence intensity (a.u.).
The figure for “AATTGTAAAGTTGACTTTAATGTTTTTTTTATTGTGGTTTCGGAGTCACCTAGTGCAG” is 8740 fluorescence intensity (a.u.); for “CCATCTCCTTCAGCCTTCGCTTCATCTGGTCGAGCTCCTGCGGAGTCACCTAGTGCAG” it is 9080 fluorescence intensity (a.u.); for “GCAAGTTCATGATCTACACTATTACACTCACTTCTACTAACGGAGTCACCTAGTGCAG” it is 8730 fluorescence intensity (a.u.).
In the case of “GCTTATTGGGTATTTTGGTTTGACACTGCTTCACGCCCAACGGAGTCACCTAGTGCAG” it was 10500 fluorescence intensity (a.u.); in that of “CGAGCTCTCTCCTTCCTTGTCTCGGGTCTCGGCATTGCATCGGAGTCACCTAGTGCAG”, 9920 fluorescence intensity (a.u.); in that of “CTTCAGTTCAATATTCTTCCCCACTAGATATCCTCTTGTCCGGAGTCACCTAGTGCAG”, 8160 fluorescence intensity (a.u.).
Regarding “TCAGATACCCAGTATGCTCAAGCTCAGCTCTTGGACACCGCGGAGTCACCTAGTGCAG”, the binding signal was 8240 fluorescence intensity (a.u.).
In the case of “AAATCCTGATTCCGATTGCTTTTTACCTCCTGTTCTTATACGGAGTCACCTAGTGCAG”, the binding signal was 10300 fluorescence intensity (a.u.).
In the case of “GTCTTGCGTGTTTGTATAATGATATATTTCTTATTAATCTCGGAGTCACCTAGTGCAG” it was 10000 fluorescence intensity (a.u.).
“GGTCGTGTCAAGTTCCAGCCTTAACAGCGAAGCAAAACATCGGAGTCACCTAGTGCAG”: the binding signal was 8040 fluorescence intensity (a.u.).
In the case of “CCACTTCCAGCATGGCATTTGGGCGAAACCCACTTTTTGACGGAGTCACCTAGTGCAG” it was 8610 fluorescence intensity (a.u.); in that of “TACATTACTTCATATTTTTTTCTGTTTGTGATTTCTATTTCGGAGTCACCTAGTGCAG”, 9740 fluorescence intensity (a.u.); in that of “TTTATATCCGGCTTTTTTACCCTCGTCAATTTCTCATTCGCGGAGTCACCTAGTGCAG”, 9740 fluorescence intensity (a.u.).
The figure for “TCACCACCGCGACTTCAGTTCTCCACCTTCAACCACTTCTCGGAGTCACCTAGTGCAG” is 11800 fluorescence intensity (a.u.).
In the case of “GTATAACTGGTTGAGTTGGTGTGTGGGGCTACCTTTCTTCCGGAGTCACCTAGTGCAG” it was 10900 fluorescence intensity (a.u.); in that of “GATATATATACGCGTTCATCAGCGTACGTTCTTATAGCTACGGAGTCACCTAGTGCAG”, 8360 fluorescence intensity (a.u.); in that of “CTATTTTTACCTAACTTTCAGCTCTATCACTTCCATTTCACGGAGTCACCTAGTGCAG”, 9040 fluorescence intensity (a.u.).
Take “CCGCCGCGCACTGCCGCCGCCGCCGCCACAACCGCGCGCCCGGAGTCACCTAGTGCAG”: the binding signal was 8270 fluorescence intensity (a.u.).
In the case of “GCTACTATACCTAGGCTCTTGCTCCACAGGCTTACCGTGCCGGAGTCACCTAGTGCAG” it was 8360 fluorescence intensity (a.u.); in that of “TAAATCCGTAGCGTACGTAACCCCTGCTCCGTTCATCATCCGGAGTCACCTAGTGCAG”, 8030 fluorescence intensity (a.u.).
In the case of “CTCAATGATGTTTTTCCTGCAGTATCTTGACATTTGAATCCGGAGTCACCTAGTGCAG” it was 10800 fluorescence intensity (a.u.); in that of “CCGCAACAACCACTAACCGACAACCACGTGGCCGCCGAATCGGAGTCACCTAGTGCAG”, 8220 fluorescence intensity (a.u.); in that of “CACCACTCTCGGGCCCACATGTCAACCACCAAATCAGTAGCGGAGTCACCTAGTGCAG”, 8160 fluorescence intensity (a.u.).
The figure for “CGAGACGCTCACGCCGGCCGGCCATCACGGTATAGCCACCCGGAGTCACCTAGTGCAG” is 9360 fluorescence intensity (a.u.); for “CACTCCTCTTCTTCTTGTTCTTCTTGCTTCCCTCCAACTTCGGAGTCACCTAGTGCAG” it is 9150 fluorescence intensity (a.u.).
“TCCATCACGACCCCAACTCGTCCTCAATCGCGGCCACCCGCGGAGTCACCTAGTGCAG”: the binding signal is 9130 fluorescence intensity (a.u.).
